Source: article doi:10.1101/2022.03.17.484690
Substitutions are numbered along the chain they refer to. Names may count otherwise. Results are given in words; binding and its absence hold for the method and conditions named. For part of these data: Binding seen in cells or lysates may run through a third protein. Some entries that bind do so weakly or less than the wild type. For part of these data: Tags and fused reporters may be left off the sequences shown. One block for each binder: values may come before it.

Columns and labels:
[1] = target: T1, DUF581-9-myc (Arabidopsis thaliana) (UniProt O80506); assay: co-IP
T1 sequence: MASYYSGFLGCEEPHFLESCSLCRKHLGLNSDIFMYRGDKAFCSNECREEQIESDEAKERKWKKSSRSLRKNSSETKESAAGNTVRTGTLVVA

[2] = target: T2, DUF581-9 fused to the GAL4 DNA binding domain (BD) (Arabidopsis thaliana) (UniProt O80506); assay: two-hybrid
T2 sequence: T1 sequence

[3] = target: T3, GST-KIN10 (Arabidopsis thaliana) (UniProt Q38997); assay: pull-down
T3 sequence: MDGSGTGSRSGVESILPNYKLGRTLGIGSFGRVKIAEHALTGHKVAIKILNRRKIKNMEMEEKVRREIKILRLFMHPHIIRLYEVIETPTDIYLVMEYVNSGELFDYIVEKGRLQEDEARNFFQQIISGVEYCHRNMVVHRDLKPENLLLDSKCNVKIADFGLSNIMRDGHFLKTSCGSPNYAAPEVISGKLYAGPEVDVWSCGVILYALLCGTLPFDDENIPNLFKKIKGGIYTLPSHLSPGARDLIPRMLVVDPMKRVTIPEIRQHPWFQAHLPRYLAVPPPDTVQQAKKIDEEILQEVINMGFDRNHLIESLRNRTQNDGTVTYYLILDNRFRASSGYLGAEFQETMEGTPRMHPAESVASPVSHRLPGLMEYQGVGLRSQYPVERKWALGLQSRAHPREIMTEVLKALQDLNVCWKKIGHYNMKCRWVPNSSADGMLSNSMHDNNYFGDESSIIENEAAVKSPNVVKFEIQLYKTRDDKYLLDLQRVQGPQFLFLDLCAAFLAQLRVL

[4] = target: T4, KIN10-Venus^N173 (Arabidopsis thaliana) (UniProt Q38997); assay: split reporter
T4 sequence: T3 sequence

[5] = target: T5, GRIK2 (yeast two-hybrid fusion) (Arabidopsis thaliana) (UniProt Q5HZ38); assay: two-hybrid
T5 sequence: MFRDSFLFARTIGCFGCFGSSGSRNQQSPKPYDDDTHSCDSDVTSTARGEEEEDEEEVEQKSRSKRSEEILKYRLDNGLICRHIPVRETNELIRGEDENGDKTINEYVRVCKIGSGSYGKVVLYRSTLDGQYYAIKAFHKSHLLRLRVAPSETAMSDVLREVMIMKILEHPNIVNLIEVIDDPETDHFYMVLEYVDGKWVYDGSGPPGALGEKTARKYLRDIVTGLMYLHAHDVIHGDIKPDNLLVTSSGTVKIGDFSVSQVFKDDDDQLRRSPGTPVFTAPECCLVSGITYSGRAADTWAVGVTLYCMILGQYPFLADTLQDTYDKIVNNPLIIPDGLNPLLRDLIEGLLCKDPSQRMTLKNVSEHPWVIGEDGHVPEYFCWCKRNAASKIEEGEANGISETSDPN

[6] = target: T6, GST-KIN10 (Arabidopsis thaliana), Q38997; assay: pull-down; settings: remark: other sources report otherwise
T6 chain: T3 sequence

[7] = target: Cytosolic FBPase (FBPase-Venus^N173 and FBPase-Venus^C155) (Arabidopsis thaliana) (UniProt Q9MA79); assay: split reporter

binding [2]: binds
B2: KIN10 fused to the GAL4 activation domain (AD) (protein, UniProt Q38997 1-512)
chain: T3 sequence

binding [3]: binds
B3: MBP-DUF581-9 (protein, UniProt O80506 1-93)
chain: T1 sequence

binding [6]: binds
B6: MBP-DUF581-9_(C47S), O80506 1-93 (protein)
chain: T1 sequence with C47S

binding [3]: binds
B8: MBP-GRIK2 (protein, UniProt Q5HZ38 1-407)
chain: T5 sequence

Continued, binder first:

B1: KIN10 (protein, UniProt Q38997 1-512)
chain: T3 sequence
binding [1]: binds

B4: DUF581-9-mCherry (protein, UniProt O80506 1-93)
chain: T1 sequence
binding [4]: binds

B5: DUF581-9 fused to the GAL4 activation domain (AD) (protein, UniProt O80506 1-93)
chain: T1 sequence
binding [5]: no binding

B7: Cytosolic FBPase (FBPase-Venus^N173 and FBPase-Venus^C155) (enzyme, UniProt Q9MA79 1-341)
chain: MDHAADAHRTDLMTITRFVLNEQSKYPESRGDFTILLSHIVLGCKFVCSAVNKAGLAKLIGLAGETNIQGEEQKKLDVLSNDVFVNALVSSGRTSVLVSEEDEEATFVEPSKRGKYCVVFDPLDGSSNIDCGVSIGTIFGIYTLDHTDEPTTADVLKPGNEMVAAGYCMYGSSCMLVLSTGTGVHGFTLDPSLGEFILTHPDIKIPNKGNIYSVNEGNAQNWDGPTTKYVEKCKFPKDGSPAKSLRYVGSMVADVHRTLLYGGIFLYPADKKSPNGKLRVLYEVFPMSFLMEQAGGQAFTGKKRALDLVPEKIHERSPIFLGSYDDVEEIKALYAEEEKKN
binding [7]: binds

B9: GRIK2-Venus^C155 (protein, UniProt Q5HZ38 1-407)
chain: T5 sequence
binding [4]: binds
